Experimental data: publication PMC10409813
These are yes or no findings as the source states them, for the method shown. Tags and fused reporters may be left off the sequences shown.

How the values were obtained:
[1] = target: SBP-tagged sjRop1 with mutated putative AIM motif (S. japonicus); assay: pull-down; SBP-tagged sjRop1 or its AIM mutant held on streptavidin beads, incubated with purified Atg8 for 1 h at 4 °C in buffer with 0.05% DDM (25 mM HEPES/KOH pH 7.4, 150 mM NaCl); SDS-PAGE and Coomassie blue staining; both purified
[2] = target: SBP-tagged full-length S. japonicus Rop1 (S. japonicus); assay: as above

binding [1]	binding [2]	Binder
no binding	no binding	S. pombe Atg8 tagged at the N-terminus with GST (protein, UniProt O94272 1-116) MRSQFKDDFSFEKRKTESQRIREKYPDRIPVICEKVDKSDIAAIDKKKYLVPSDLTVGQFVYVIRKRIKLSPEKAIFIFIDEILPPTAALMSTIYEEHKSEDGFLYITYSGENTFG
no binding	no binding	S. cerevisiae Atg8 tagged at the N-terminus with His10 (protein, UniProt P38182 1-117) MKSTFKSEYPFEKRKAESERIADRFKNRIPVICEKAEKSDIPEIDKRKYLVPADLTVGQFVYVIRKRIMLPPEKAIFIFVNDTLPPTAALMSAIYQEHKDKDGFLYVTYSGENTFGR
